Data as given in the supplement of paper PMC12067093, “Discovery and optimisation of a covalent ligand for TRIM25 and its application to targeted protein ubiquitination” (Chemical Science, 2025).
The list shows a part of the results.

Protein sequences, listed by entry. Tags and fused reporters are not part of them. Lines headed by an entry give the natural chain unless they say otherwise; changes in a name come on top.
UniProt P49368: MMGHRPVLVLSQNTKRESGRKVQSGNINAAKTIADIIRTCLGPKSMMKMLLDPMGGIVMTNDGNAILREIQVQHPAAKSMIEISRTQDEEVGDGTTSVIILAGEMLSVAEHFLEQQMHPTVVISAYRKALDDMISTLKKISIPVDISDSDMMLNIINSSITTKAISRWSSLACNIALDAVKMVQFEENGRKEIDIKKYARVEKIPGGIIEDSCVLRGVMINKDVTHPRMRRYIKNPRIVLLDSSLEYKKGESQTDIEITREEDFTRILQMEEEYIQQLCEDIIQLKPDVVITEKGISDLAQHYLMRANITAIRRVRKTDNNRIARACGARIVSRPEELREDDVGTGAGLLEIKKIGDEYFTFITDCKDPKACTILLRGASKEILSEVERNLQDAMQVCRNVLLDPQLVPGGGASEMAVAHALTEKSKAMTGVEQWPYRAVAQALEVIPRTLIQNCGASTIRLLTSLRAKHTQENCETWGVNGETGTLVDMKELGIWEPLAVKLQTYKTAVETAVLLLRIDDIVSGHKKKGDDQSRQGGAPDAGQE
UniProt P17655: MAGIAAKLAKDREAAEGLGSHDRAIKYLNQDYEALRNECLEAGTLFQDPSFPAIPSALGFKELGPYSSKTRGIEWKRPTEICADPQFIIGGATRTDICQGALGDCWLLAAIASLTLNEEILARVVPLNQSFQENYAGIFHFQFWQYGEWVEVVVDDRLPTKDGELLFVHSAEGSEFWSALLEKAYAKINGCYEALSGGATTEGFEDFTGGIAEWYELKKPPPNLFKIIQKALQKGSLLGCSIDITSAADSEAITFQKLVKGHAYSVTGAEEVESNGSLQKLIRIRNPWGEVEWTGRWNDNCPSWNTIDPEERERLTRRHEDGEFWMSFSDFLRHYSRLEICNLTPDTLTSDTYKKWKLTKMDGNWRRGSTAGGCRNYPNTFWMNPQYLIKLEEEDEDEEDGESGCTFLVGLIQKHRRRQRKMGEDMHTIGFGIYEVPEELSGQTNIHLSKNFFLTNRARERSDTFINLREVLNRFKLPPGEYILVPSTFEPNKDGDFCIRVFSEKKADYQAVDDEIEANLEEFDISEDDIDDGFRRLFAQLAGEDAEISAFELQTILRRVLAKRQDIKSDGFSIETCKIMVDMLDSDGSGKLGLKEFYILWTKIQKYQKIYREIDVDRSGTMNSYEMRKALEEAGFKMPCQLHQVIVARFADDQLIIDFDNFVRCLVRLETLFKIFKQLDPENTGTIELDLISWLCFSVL
UniProt Q8N163, whole entry, looked up: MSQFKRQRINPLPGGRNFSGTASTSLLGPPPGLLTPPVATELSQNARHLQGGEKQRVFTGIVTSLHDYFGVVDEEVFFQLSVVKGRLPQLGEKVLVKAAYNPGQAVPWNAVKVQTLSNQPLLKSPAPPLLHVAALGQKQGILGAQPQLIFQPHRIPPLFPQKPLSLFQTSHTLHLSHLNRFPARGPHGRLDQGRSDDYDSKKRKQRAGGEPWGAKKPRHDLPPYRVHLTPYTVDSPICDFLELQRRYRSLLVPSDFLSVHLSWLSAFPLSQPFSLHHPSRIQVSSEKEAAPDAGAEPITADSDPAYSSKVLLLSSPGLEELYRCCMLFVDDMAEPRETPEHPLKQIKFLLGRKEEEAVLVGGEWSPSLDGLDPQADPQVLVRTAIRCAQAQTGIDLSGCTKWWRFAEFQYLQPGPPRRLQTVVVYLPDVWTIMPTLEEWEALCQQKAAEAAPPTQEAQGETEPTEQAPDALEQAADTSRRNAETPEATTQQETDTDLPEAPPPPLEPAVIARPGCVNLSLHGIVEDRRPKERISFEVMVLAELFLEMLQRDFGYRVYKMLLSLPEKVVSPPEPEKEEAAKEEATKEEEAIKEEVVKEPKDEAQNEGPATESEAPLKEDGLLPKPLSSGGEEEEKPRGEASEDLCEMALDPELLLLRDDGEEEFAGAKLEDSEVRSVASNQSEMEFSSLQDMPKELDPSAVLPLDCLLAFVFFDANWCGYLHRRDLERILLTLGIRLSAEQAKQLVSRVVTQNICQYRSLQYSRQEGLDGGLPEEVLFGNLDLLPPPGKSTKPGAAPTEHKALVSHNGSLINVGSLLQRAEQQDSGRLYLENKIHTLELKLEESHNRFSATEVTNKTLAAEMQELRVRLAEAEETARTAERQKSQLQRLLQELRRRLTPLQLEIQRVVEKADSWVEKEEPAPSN
UniProt P16152: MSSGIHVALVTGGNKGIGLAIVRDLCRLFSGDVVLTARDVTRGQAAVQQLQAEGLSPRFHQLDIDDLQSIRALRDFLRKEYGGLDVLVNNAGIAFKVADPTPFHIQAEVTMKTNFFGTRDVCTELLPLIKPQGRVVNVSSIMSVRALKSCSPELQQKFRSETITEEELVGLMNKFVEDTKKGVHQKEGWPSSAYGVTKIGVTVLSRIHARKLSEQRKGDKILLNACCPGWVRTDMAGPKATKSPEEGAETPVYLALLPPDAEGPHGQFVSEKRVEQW
UniProt P29466: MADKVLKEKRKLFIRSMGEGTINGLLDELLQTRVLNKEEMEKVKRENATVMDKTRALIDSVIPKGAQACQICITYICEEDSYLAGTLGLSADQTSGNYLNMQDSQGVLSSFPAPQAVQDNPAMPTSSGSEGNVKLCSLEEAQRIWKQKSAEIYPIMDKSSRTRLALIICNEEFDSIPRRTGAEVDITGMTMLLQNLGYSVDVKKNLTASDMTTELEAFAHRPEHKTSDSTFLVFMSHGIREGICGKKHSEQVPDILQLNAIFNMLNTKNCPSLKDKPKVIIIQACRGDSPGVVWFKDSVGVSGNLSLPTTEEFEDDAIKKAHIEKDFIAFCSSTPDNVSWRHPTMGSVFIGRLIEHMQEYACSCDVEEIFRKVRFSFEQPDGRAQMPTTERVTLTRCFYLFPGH
UniProt Q5T0F9: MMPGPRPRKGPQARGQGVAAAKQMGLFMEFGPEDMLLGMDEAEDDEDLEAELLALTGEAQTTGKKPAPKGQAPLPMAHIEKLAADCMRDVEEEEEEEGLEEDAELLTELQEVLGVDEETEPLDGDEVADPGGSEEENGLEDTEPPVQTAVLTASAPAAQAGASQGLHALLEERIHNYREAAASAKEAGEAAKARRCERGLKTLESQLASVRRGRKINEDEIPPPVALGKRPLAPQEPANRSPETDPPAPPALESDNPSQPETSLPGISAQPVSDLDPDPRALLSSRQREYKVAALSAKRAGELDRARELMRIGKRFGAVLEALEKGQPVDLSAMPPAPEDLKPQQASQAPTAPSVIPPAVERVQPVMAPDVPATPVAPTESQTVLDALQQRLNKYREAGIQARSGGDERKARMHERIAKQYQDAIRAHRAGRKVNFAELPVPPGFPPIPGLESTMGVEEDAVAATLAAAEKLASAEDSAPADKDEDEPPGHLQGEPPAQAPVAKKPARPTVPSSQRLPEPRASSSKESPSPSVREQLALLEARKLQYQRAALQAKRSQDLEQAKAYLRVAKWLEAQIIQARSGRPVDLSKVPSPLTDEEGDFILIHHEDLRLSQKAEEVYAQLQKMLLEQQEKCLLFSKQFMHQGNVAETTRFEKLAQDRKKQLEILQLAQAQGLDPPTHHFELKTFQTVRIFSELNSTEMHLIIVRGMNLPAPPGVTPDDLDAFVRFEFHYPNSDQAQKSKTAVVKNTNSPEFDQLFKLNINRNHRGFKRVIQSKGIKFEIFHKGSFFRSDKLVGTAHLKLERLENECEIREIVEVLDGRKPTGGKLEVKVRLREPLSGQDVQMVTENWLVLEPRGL
UniProt P07384: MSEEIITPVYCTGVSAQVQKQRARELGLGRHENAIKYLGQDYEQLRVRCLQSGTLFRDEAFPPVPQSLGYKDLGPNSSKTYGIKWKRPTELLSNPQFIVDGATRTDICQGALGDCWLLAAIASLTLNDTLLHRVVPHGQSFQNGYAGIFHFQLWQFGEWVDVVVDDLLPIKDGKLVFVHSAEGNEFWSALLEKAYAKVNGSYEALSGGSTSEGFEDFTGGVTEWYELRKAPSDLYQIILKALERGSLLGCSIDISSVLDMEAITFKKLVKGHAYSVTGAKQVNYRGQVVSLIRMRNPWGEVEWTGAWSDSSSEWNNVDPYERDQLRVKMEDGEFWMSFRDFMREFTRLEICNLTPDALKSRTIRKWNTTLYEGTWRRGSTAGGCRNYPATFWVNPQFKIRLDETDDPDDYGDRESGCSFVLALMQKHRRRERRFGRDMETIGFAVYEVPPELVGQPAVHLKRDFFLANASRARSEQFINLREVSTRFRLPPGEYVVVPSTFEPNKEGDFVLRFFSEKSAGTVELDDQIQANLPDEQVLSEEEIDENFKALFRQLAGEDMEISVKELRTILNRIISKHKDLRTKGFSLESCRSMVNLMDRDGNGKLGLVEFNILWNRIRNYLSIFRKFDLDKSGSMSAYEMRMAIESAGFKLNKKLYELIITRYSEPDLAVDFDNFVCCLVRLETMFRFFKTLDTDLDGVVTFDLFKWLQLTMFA
UniProt P51946: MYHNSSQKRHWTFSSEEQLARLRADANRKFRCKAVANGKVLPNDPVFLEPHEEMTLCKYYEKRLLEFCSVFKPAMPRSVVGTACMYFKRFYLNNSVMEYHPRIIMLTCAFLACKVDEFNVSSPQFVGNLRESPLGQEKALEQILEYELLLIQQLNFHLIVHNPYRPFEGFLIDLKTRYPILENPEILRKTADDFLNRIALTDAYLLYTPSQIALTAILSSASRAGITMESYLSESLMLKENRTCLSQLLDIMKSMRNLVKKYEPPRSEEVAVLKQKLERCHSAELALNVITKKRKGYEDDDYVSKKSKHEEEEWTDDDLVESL
UniProt Q9Y6W3: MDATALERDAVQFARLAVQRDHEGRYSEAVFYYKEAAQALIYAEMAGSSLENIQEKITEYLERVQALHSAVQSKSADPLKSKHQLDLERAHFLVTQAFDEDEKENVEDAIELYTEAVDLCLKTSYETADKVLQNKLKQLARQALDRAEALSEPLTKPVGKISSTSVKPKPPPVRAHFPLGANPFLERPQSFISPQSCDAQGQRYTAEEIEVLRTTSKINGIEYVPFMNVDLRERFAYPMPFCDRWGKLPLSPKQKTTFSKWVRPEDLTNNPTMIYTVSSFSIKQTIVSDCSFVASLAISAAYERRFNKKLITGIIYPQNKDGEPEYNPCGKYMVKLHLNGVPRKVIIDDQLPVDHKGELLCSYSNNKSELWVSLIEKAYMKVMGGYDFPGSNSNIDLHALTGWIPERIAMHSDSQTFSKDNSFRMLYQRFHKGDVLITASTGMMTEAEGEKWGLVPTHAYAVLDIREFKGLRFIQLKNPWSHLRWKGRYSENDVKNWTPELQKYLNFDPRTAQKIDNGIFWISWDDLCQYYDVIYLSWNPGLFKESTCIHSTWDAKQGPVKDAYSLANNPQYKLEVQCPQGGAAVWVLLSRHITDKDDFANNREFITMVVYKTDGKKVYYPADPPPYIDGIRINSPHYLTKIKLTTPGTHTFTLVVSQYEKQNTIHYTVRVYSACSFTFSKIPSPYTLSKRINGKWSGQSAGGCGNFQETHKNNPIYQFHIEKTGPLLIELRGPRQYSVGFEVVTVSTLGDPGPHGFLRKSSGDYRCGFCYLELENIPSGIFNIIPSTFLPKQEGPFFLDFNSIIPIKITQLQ
UniProt Q9H257: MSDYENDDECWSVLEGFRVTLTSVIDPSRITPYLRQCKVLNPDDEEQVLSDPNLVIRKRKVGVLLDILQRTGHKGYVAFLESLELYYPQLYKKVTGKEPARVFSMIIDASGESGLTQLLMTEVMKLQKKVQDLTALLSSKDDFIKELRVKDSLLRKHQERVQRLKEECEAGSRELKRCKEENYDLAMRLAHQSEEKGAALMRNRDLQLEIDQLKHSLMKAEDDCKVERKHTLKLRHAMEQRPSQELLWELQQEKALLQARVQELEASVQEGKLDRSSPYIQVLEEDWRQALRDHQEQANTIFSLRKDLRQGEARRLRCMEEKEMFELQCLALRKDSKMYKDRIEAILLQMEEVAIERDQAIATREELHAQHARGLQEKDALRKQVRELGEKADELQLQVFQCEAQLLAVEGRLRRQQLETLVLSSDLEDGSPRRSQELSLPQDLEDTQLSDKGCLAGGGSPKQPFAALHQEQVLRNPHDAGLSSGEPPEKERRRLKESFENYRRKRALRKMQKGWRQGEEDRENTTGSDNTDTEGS
UniProt Q14790: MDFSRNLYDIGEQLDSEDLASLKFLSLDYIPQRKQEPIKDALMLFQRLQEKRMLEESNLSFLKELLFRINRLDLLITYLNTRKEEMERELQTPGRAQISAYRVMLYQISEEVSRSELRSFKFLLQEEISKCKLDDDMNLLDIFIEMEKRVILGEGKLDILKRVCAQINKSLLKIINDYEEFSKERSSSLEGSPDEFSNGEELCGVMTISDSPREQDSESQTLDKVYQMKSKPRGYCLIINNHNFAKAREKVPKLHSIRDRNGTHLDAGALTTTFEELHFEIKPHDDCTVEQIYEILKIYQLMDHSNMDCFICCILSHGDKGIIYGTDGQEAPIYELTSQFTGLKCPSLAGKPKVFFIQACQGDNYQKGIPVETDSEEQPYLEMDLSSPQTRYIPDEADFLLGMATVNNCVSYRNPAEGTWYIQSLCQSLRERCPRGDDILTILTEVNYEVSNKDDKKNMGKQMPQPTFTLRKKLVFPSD

Compound: CC1Cc2ccccc2N1C(=O)C1CCCN(C1)C(=O)CCl (mixture of isomers) [TRIM25 ligand 11 (diastereomer mixture)]
Test: probe-labelled cysteine peptide fold change vs DMSO (competition) (log2 fold change); higher = less target engagement (more negative = stronger competition)
Conditions: THP-1, incubation time: 4 h
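Further: competitive chemoproteomic profiling in live THP-1 cells with an iodoacetamide desthiobiotin (IA-DTB) probe, comparing probe-labelled peptide intensities in compound-treated cells against DMSO-treated controls.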

Target | probe-labelled cysteine peptide fold change (10 µM) | probe-labelled cysteine peptide fold change (50 µM)
CCT3_P49368_366_KIGDEYFTFITDCK (UniProt P49368) | 0.0365 | 0.0714
CAPN2_P17655_301_WNDNCPSWNTIDPEERER (UniProt P17655) | -0.267 | -0.144
CCAR2_Q8N163_238_VHLTPYTVDSPICDFLELQR (UniProt Q8N163) | -0.139 | -0.437
CANX_P27824_160_PFLFDTKPLIVQYEVNFQNGIECGGAYVK (UniProt P27824) | 0.154 | -0.281
CBR1_P16152_150_SCSPELQQK (UniProt P16152) | -0.0902 | -0.0901
CCDC115_Q96NT0_68_SVGPLQYASHMEPQVCLHASEAQEGLQK (UniProt Q96NT0) | 0.125 | -0.015
CASP3_P42574_184_GTELDCGIETDSGVDDDMACHK (UniProt P42574) | 0.206 | -0.179
CASP1_P29466_136_LCSLEEAQR (UniProt P29466) | -0.0101 | 0.0769
CC2D1B_Q5T0F9_809_LENECEIREIVEVLDGR (UniProt Q5T0F9) | -0.0987 | 0.0697
CCDC88B_A6NC98_238_EPLCLRPEAPSR (UniProt A6NC98) | 0.135 | 0.201
CBFB_Q13951_107_APMILNGVCVIWK (UniProt Q13951) | -0.0282 | -0.0312
CAPN1_P07384_678_YSEPDLAVDFDNFVCCLVR (UniProt P07384) | 0.039 | -0.0699
CARNMT1_Q8N4J0_115_CIDHNQEILLTIVNDCIHMFENK (UniProt Q8N4J0) | 0.186 | -0.0019
CCDC50_Q8IVM0_85_DLEQQDCEIAQEIQEK (UniProt Q8IVM0) | -0.0746 | -0.201
CAPN2_P17655_640_MPCQLHQVIVAR (UniProt P17655) | 0.0385 | -0.0365
CCNH_P51946_280_CHSAELALNVITK (UniProt P51946) | 0.0814 | 0.00976
CAP1_Q01518_375_INSITVDNCK (UniProt Q01518) | 0.148 | 0.144
CAPN7_Q9Y6W3_329_DGEPEYNPCGK (UniProt Q9Y6W3) | 0.0278 | 0.0321
CAPZB_P47756_147_GCWDSIHVVEVQEK (UniProt P47756) | 0.0922 | -0.0259
CCDC97_Q96F63_218_TPTHQPPKPGSPGRPACPLSNLLLQSYEER (UniProt Q96F63) | -0.0458 | -0.0986

Some values from the entries so far:
CAPN1_P07384_678_YSEPDLAVDFDNFVCCLVR (UniProt P07384) | probe-labelled cysteine peptide fold change (10 µM): 0.039
CAPN7_Q9Y6W3_329_DGEPEYNPCGK (UniProt Q9Y6W3) | probe-labelled cysteine peptide fold change (10 µM): 0.0278

Next records.

Target | probe-labelled cysteine peptide fold change (10 µM) | probe-labelled cysteine peptide fold change (50 µM)
CCT3_P49368_366_IGDEYFTFITDCKDPK (UniProt P49368) | -0.283 | -0.235
CCNT2_O60583_26_CGVEADK (UniProt O60583) | -0.0339 | -0.0758
CASP1_P29466_169_LALIICNEEFDSIPR (UniProt P29466) | 0.089 | -0.0438
CARD9_Q9H257_168_LKEECEAGSR (UniProt Q9H257) | -0.0606 | 0.0755
CARD9_Q9H257_329_EMFELQCLALR (UniProt Q9H257) | -0.0386 | 0.114
CCT3_P49368_40_TCLGPK (UniProt P49368) | 0.0333 | 0.119
CCAR2_Q8N163_515_PGCVNLSLHGIVEDR (UniProt Q8N163) | 0.284 | 0.0205
CBR1_P16152_226+227_ILLNACCPGWVR (UniProt P16152) | -0.0256 | -0.171
CAPN2_P17655_498_DGDFCIR (UniProt P17655) | 0.00623 | 0.1
CCNH_P51946_57_VLPNDPVFLEPHEEMTLCK (UniProt P51946) | 0.0345 | 0.154
CCNE2_O96020_109_NLFINPSPLPDLSWGCSK (UniProt O96020) | -0.108 | -0.377
CC2D1B_Q5T0F9_809_LERLENECEIR (UniProt Q5T0F9) | 0.0806 | 0.00479
CASP8_Q14790_409_YIPDEADFLLGMATVNNCVSYR (UniProt Q14790) | -0.017 | -0.298
CASP4_P49662_217_SSDSTFLVLMSHGILEGICGTVHDEK (UniProt P49662) | 0.168 | 0.107
CASP8_Q14790_312+313_IYQLMDHSNMDCFICCILSHGDK (UniProt Q14790) | -0.175 | -0.154
CASP7_P55210_186_LFFIQACR (UniProt P55210) | -0.143 | -0.112
CAST_P20810_408_AAAPAPVSEAVCR (UniProt P20810) | -0.143 | -0.278
CASP2_P42575_399_ACDMHVADMLVK (UniProt P42575) | -0.0528 | -0.0975
CCP110_O43303_285_HCVSVIPDKPSLNK (UniProt O43303) | 0.116 | -0.0678
